Assay results published in PubChem BioAssay AID1347075 (National Center for Advancing Translational Sciences (NCATS), 2019).
Among all 400,000 compounds or so, about 5,500 (1.4%) were called active. Inconclusive results, whose numbers are uncertain, are shown with a selection of clear calls. Calls come from the whole dose curve; as a rule, active = well fitted cell-killing curve with a large enough effect; inconclusive = small, poorly fitted or top-dose-only effect, or effect the other way; inactive = flat fitted curve, though single readings scatter. A potency beside an inconclusive call is a rough fit, not a confirmed value.
% is set by controls: 0 for no effect and ±100 for the full control effect; potency is the fitted concentration of half-maximal effect.

Assay: qHTS assay for MDR1-selective chemotherapeutics: Primary screen using the parental adenocarcinoma cell KB-3-1; note: nearly all actives have a fitted effect of over 60% in size
Conditions: KB-3-1 viability, CellTiter-Glo ATP luminescence, 72 h; activity change, negative = cytotoxic: at 46.1 µM (top of the series)
Summary of the method: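 Here the drug-naive KB-3-1 line serves as comparator for MDR sub-line selectivity; cells received compound titrations, 72 h at 37 °C, then CellTiter-Glo readout.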
For `CCCn1nnnc1NC(=O)c1ccc2ccccc2c1`, the Potency was inconclusive: 20.6 µM [cytotoxic, single point].
With `O=C(c1cc(N2C(=O)C3C4CCC(C4)C3C2=O)ccc1Cl)N1CCN(c2ccc(F)cc2)CC1` (stereo not given) the Potency was inconclusive: 29.1 µM [cytotoxic, single point].
For `CCC(=O)N(C1=C(NC(C)C)C(=O)c2ccccc2C1=O)C(C)C`, the Potency was inconclusive: 29.1 µM [cytotoxic, single point].
For `Cc1cc(N)cc(C)c1-c1c(Br)cc(N)cc1Br`, the Potency was active: 13 µM.
With `CNc1cncc(-c2c(OC)cccc2OC)n1` the Potency was inconclusive: 29.1 µM [cytotoxic, single point].
For `COc1ccc(-c2sc3cc4c(cc3c2C#Cc2ccc(N)cc2)OCO4)cc1`, the Potency was “inactive”.
In the case of `CN1CCC(=C2c3ccccc3CC(=O)c3sccc32)CC1`, the Potency is reported as inconclusive: 29.1 µM [cytotoxic, partial curve, poor fit].
For `CCCN1CCN(C(=S)Nc2ccccc2C(F)(F)F)CC1`, the Potency was active: 20.6 µM.
With `CSc1nc(NCc2ccco2)c2ccccc2n1` the Potency was inconclusive: 29.1 µM [cytotoxic, single point].
For `COc1ccc(S(=O)(=O)N2CCOC2CNC(=O)C(=O)NCCc2ccc(OC)c(OC)c2)cc1` (stereo not given), the Potency was inconclusive: 18.4 µM [cytotoxic, partial curve, poor fit].
With `CCCCC(=O)Nc1ccc2c(c1)nc1n2CCOC1` the Potency was inconclusive: 29.1 µM [cytotoxic, single point].
In the case of `CC(NC(=O)CSc1nc2c(cc1C#N)CN(C)CC2)c1ccccc1` (stereo not given), the Potency is reported as “inactive”.
In the case of `Cc1cccc(C)c1NC(=O)c1cc2sccc2n1Cc1ccc(F)cc1`, the Potency is reported as “inactive”.
In the case of `Cc1scc(C(=O)N/N=C/c2ccc(OC(C)C)cc2)c1C`, the Potency is reported as “inactive”.
In the case of `COc1ccc(-n2c(-c3ccc(Br)cc3)c[n+]3c2CCCCC3)cc1`, the Potency is reported as active: 3.66 µM.
With `Cc1cccc(C)c1OCC(=O)NNC(=S)NC(=O)C1CC1` the Potency was inconclusive: 23.1 µM [cytotoxic, single point].
For `CCOC(=O)c1c(C)[nH]c(C(=O)OCc2c(C)noc2C)c1C`, the Potency was inconclusive: 20.6 µM [cytotoxic, partial curve, poor fit].
For `COc1ccc(Nc2cc(C)nc(-n3nc(C)cc3C)n2)cc1`, the Potency was active: 0.731 µM.
With `O=Nc1c(O)[nH]c2ccc(Cl)cc12` the Potency was inconclusive: 9.2 µM [cytotoxic, partial curve, poor fit].
For `CC(=O)c1ccc(S(=O)(=O)Nc2cccc(-c3ccc(N4CCCC4)nn3)c2)cc1`, the Potency was “inactive”.
In the case of `CN1CCCC(CC2c3ccccc3Sc3ccccc32)C1` (stereo not given), the Potency is reported as “inactive”.
For `COc1cccc(NC(=O)COC(=O)c2ccc(C)c(S(=O)(=O)N3CCCCC3)c2)c1`, the Potency was inconclusive: 29.1 µM [cytotoxic, single point].
In the case of `COc1ccc(N2CCN(c3nc(NCCO)nc(N4CCOCC4)n3)CC2)cc1`, the Potency is reported as inconclusive: 23.1 µM [rising, single point].
In the case of `COc1ccc(/C=C2/SC(=S)N(CCCC(=O)N3CCN(C)CC3)C2=O)cc1`, the Potency is reported as inconclusive: 20.6 µM [cytotoxic, single point].
For `CCOC(=O)c1ccc(NC(=O)c2cc3ccccc3o2)cc1`, the Potency was “inactive”.
With `CCOC(=O)c1c(C)oc2cc(Sc3ccccc3)c(O)c(O)c12` the Potency was inconclusive: 29.1 µM [cytotoxic, single point].
With `CCN1C(=O)c2ccccc2S(=O)c2ccc(C(=O)N3CCN(c4cccc(Cl)c4)CC3)cc21` (stereo not given) the Potency was inconclusive: 18.4 µM [cytotoxic, single point].
In the case of `COc1c(OC(C)=O)ccc(/C=C/c2ccc3cccc(OCc4ccccc4)c3n2)c1[N+](=O)[O-]`, the Potency is reported as active: 16.4 µM.
In the case of `Cc1[nH][nH]c(=O)c1C(c1ccc2c(c1)OCO2)c1c(C)[nH][nH]c1=O`, the activity change, negative = cytotoxic is reported as inconclusive: 0%.
In the case of `COCCn1c(=S)[nH]c2cc(C(=O)N3CCc4ccccc43)ccc2c1=O`, the Potency is reported as inconclusive: 16.4 µM [cytotoxic, partial curve, poor fit].
For `Cc1c(C(=O)O)oc2ccc(S(=O)(=O)N3CC(C)CC(C)C3)cc12` (stereo not given), the Potency was “inactive”.
For `Cc1ccccc1NC(=O)c1ccc(F)c(S(=O)(=O)N2CCN(c3ccccn3)CC2)c1`, the Potency was inconclusive: 35.5 µM [cytotoxic, single point].
In the case of `O=C(c1ccc(Cl)c(S(=O)(=O)N2CCCC2)c1)N1CCN(c2ccc(F)cc2)CC1`, the Potency is reported as inconclusive: 18.4 µM [cytotoxic, single point].
With `CCOC(=O)C1(Cc2ccc(OC)cc2)CCN(C(=O)c2ccc3[nH]ccc3c2)CC1` the Potency was inconclusive: 25.9 µM [cytotoxic, single point].
In the case of `COc1ccc(C(=O)c2no[n+]([O-])c2C(=O)c2ccc(OC)cc2)cc1`, the Potency is reported as inconclusive: 29.1 µM [cytotoxic, single point].
With `COC(=O)[C@@]12C[C@@H](CC(=O)NCc3cccc4ccccc34)C(=O)N(CCc3ccc(OC)c(OC)c3)C1=CCC(C)(C)C2` the Potency was inconclusive: 29.1 µM [cytotoxic, single point].
With `CCN1CCN(c2ccc(S(=O)(=O)N3CCCCC3)cc2NC(=O)c2ccc([N+](=O)[O-])o2)CC1` the Potency was inconclusive: 23.1 µM [rising, single point].
For `CCOC(=O)C1(Cc2cccc(OC)c2)CCCN(C(=O)c2cc(C)oc2C)C1` (stereo not given), the Potency was inconclusive: 29.1 µM [cytotoxic, single point].
In the case of `C/C(=N\NC(=O)c1ccccc1F)c1ccc2c(c1)Nc1ccccc1S2`, the Potency is reported as inconclusive: 3.26 µM [cytotoxic, full curve].
With `COC(=O)/C=C1\OCc2cc(OCc3ccccc3)ccc21` the Potency was “inactive”.
For `CCOC(=O)c1[nH]c(C)c(C(=O)NCc2ccccc2Cl)c1C`, the Potency was “inactive”.
In the case of `CCCC1=Nc2cc(C(=O)NCCN3CCCC3)ccc2Sc2ccccc21`, the Potency is reported as “inactive”.
For `COCCOc1cc(NC(=O)c2sccc2Oc2ccc([N+](=O)[O-])cc2F)c(Cl)cc1Cl`, the Potency was inconclusive: 29.1 µM [cytotoxic, single point].
In the case of `O=C(NCc1ccc2c(c1)CCN2C(=O)c1ccncc1)c1cccc(F)c1`, the Potency is reported as “inactive”.
In the case of `Nc1nc2ccccc2n1C(=O)CCc1ccccc1`, the Potency is reported as active: 18.4 µM.
With `CCN(c1ccc(OC)cc1)S(=O)(=O)c1cc(-c2cc(C)no2)ccc1C(C)C` the Potency was inconclusive: 23.1 µM [cytotoxic, single point].
With `CCCCN(c1ccccc1)S(=O)(=O)c1cc2c3c(c1)C(C)C(=O)N3CCC2` (stereo not given) the Potency was inconclusive: 8.2 µM [cytotoxic, partial curve].
For `CC1=C(C(=O)OCC2CCCO2)C(c2ccc(F)cc2)NC(=O)N1` (stereo not given), the activity change, negative = cytotoxic was inconclusive: 15.3%.
With `CC(NC(C)c1ccccc1Cl)C(=O)Nc1cccc(S(=O)(=O)N2CCCCC2)c1` (stereo not given) the Potency was “inactive”.
For `CCOC(=O)C1=CN(Cc2cccc(F)c2)S(=O)(=O)NC1c1ccc(Br)cc1F` (stereo not given), the Potency was inconclusive: 25.9 µM [cytotoxic, single point].
In the case of `CCCC[n+]1c(C)ccc2ccccc21`, the Potency is reported as inconclusive: 23.1 µM [cytotoxic, single point].
In the case of `CCCCCCCCCCCCCCCC[n+]1ccc(/C=N/O)cc1`, the Potency is reported as active: 2.91 µM.
In the case of `COc1ccc(/C=C2/Sc3ccc(C(=O)N4CCOCC4)cc3NC2=O)cc1OC`, the Potency is reported as inconclusive: 25.9 µM [cytotoxic, partial curve, poor fit].
With `COc1ccccc1-n1c(SCC(=O)OC(C)C)nc2cccnc21` the activity change, negative = cytotoxic was inconclusive: 30.4%.
With `C=C(c1ccc(O)cc1)c1ccc(O)cc1` the Potency was “inactive”.
In the case of `COc1cccc(CNC(=O)C2CCC(=O)N(CCc3cccc(F)c3)C2)c1` (stereo not given), the Potency is reported as inconclusive: 29.1 µM [rising, single point].
For `O=C(Nc1nc2ccccc2s1)c1ccccc1`, the Potency was inconclusive: 29.1 µM [cytotoxic, single point].
In the case of `O=C(N/N=C/c1ccc([N+](=O)[O-])o1)c1ccccc1-n1cccc1`, the Potency is reported as inconclusive: 20.6 µM [cytotoxic, single point].
In the case of `COc1cccc(/C=N/NC(=O)c2[nH]nc3c2CCc2ccccc2-3)c1O`, the Potency is reported as inconclusive: 3.66 µM [cytotoxic, full curve, poor fit].
With `COc1ccc(S(=O)(=O)N(CCc2ccccc2)CC(=O)NCc2ccc(C)cc2)cc1` the Potency was inconclusive: 29.1 µM [cytotoxic, single point].
In the case of `O=S(=O)(Nc1cc(Cl)ccc1-n1cncn1)c1cc(Br)ccc1Br`, the Potency is reported as inconclusive: 29.1 µM [cytotoxic, partial curve, poor fit].
In the case of `C=CCn1c(O)c(C2=c3ccccc3=NC2=O)c2ccccc21`, the Potency is reported as inconclusive: 18.4 µM [cytotoxic, single point].
With `CCCCOc1ccc(S(=O)(=O)Nc2cccnc2)cc1` the Potency was active: 25.9 µM.
For `Cc1ccc(CNC(=O)C2CCN(S(=O)(=O)N3CCCC3)CC2)cc1`, the Potency was inconclusive: 25.9 µM [rising, single point].
For `O=c1c(O)c(-c2cccs2)oc2ccccc12`, the Potency was inconclusive: 20.6 µM [cytotoxic, single point].
With `Cc1c2cnn(CC(=O)N3CCOCC3)c(=O)c2c(C)n1Cc1ccccc1F` the Potency was “inactive”.
For `CCNc1nc(NC(C)C)nc(SCCOc2ccc(C)cc2)n1`, the Potency was inconclusive: 18.4 µM [cytotoxic, single point].
For `COc1cc(-c2nc(-c3ccccc3)c(-c3ccc(F)cc3)[nH]2)cc2c1OCO2`, the Potency was “inactive”.
For `FC(F)(F)c1cccc(Cc2noc(CN3CCC(c4ccncc4)CC3)n2)c1`, the Potency was inconclusive: 25.9 µM [cytotoxic, partial curve, poor fit].
For `Cc1ccc(C2CC2c2n[nH]c(=S)n2-c2ccc(Cl)cc2)cc1` (stereo not given), the Potency was inconclusive: 29.1 µM [cytotoxic, single point].
